PubChem BioAssay AID493246 | Drosophila RNAi Screening Center | 2011
Aim: 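Identify essential fly genes by loss of cell viability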 (primary screen). System: Drosophila Kc and S2R+ cells. Reagents: long dsRNA against Drosophila genes. Measured: 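Raw, unnormalised count of remaining cells in each well; per-plate z-scores of cell number underlie the calls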. Scale: Kc cell number and S2R+ cell number: higher = more cells remaining. Hit rule: 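Active when the per-plate z-score of cell number is 3 or more in the direction of fewer cells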.
The deposit covers about 21,000 reagents; below is a random part of those that have a named target and a result. Of all reagents, 429 (2%) got an active call. 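Values are raw and not normalised between plates; calls rest on per-plate z-scores that were not deposited.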 Names joined by + are all predicted targets of the reagent. The record does not give: the amount of reagent, the time to read-out.

The first 3 records as a preview:
Target gene | dsRNA | Kc cell number, rep 1 | Kc cell number, rep 2 | S2R+ cell number, rep 1 | S2R+ cell number, rep 2 | Call
CG4935 | DRSC01924 | 1.60e6 | 1.67e6 | 1.34e6 | 1.51e6 | inactive
Inx6 | DRSC20579 | 1.63e6 | 1.71e6 | 1.16e6 | 1.28e6 | inactive
CG5693 | DRSC02878 | 1.56e6 | 1.55e6 | 1.23e6 | 1.45e6 | inactive

The listing, from the first entry:
Target gene | dsRNA | Kc cell number, rep 1 | Kc cell number, rep 2 | S2R+ cell number, rep 1 | S2R+ cell number, rep 2 | Call
CG4935 | DRSC01924 | 1.60e6 | 1.67e6 | 1.34e6 | 1.51e6 | inactive
Inx6 | DRSC20579 | 1.63e6 | 1.71e6 | 1.16e6 | 1.28e6 | inactive
CG5693 | DRSC02878 | 1.56e6 | 1.55e6 | 1.23e6 | 1.45e6 | inactive
Naa60 | DRSC10301 | 1.33e6 | 1.26e6 | 1.26e6 | 1.40e6 | inactive
Syx17 | DRSC08591 | 1.48e6 | 1.47e6 | 1.35e6 | 1.23e6 | inactive
CG14454 | DRSC11711 | 1.53e6 | 1.58e6 | 1.17e6 | 1.23e6 | inactive
CG3909 | DRSC14150 | 1.66e6 | 1.71e6 | 1.27e6 | 1.42e6 | inactive
CG6403 | DRSC16033 | 1.59e6 | 1.65e6 | 9.52e5 | 1.14e6 | inactive
DppIII | DRSC16241 | 1.68e6 | 1.82e6 | 1.42e6 | 1.62e6 | inactive
Bdbt | DRSC15218 | 1.46e6 | 1.68e6 | 9.37e5 | 1.00e6 | inactive
CrzR | DRSC09781 | 1.66e6 | 1.55e6 | 1.46e6 | 1.47e6 | inactive
CrzR | DRSC09782 | 1.63e6 | 1.69e6 | 1.48e6 | 1.49e6 | inactive
CG9967 | DRSC00742 | 1.74e6 | 1.56e6 | 1.04e6 | 1.14e6 | inactive
Gem4b + Gem4c | DRSC17294 | 1.28e6 | 1.46e6 | 1.01e6 | 1.08e6 | inactive
CG42540 | DRSC08327 | 1.07e6 | 1.39e6 | 7.91e5 | 7.98e5 | inactive
CG42540 | DRSC08328 | 1.67e6 | 1.63e6 | 9.19e5 | 1.04e6 | inactive
CG42540 | DRSC08593 | 1.16e6 | 1.18e6 | 5.80e5 | 7.07e5 | active
rump | DRSC16480 | 1.39e6 | 1.40e6 | 1.26e6 | 1.34e6 | inactive
Tango1 | DRSC02127 | 1.14e6 | 1.35e6 | 5.14e5 | 5.41e5 | inactive
CG3527 | DRSC18307 | 1.40e6 | 1.44e6 | 9.46e5 | 1.05e6 | inactive
CG32391 | DRSC08865 | 1.62e6 | 1.92e6 | 1.24e6 | 1.34e6 | inactive
Nufip | DRSC10397 | 1.78e6 | 1.86e6 | 1.24e6 | 1.29e6 | inactive
coro | DRSC05007 | 1.52e6 | 1.54e6 | 1.13e6 | 1.23e6 | inactive
tud | DRSC04719 | 1.44e6 | 1.45e6 | 1.27e6 | 3.03e5 | inactive
PolQ | DRSC17006 | 1.88e6 | 1.96e6 | 1.33e6 | 1.38e6 | inactive
Rab9Db + Rab9D + Rab9E | DRSC17656 | 1.15e6 | 1.39e6 | 1.12e6 | 1.12e6 | inactive
CG8773 | DRSC16444 | 1.48e6 | 1.55e6 | 1.37e6 | 1.42e6 | inactive
CG32551 | DRSC19259 | 1.66e6 | 1.95e6 | 1.14e6 | 1.29e6 | inactive
CG15117 | DRSC06539 | 1.25e6 | 1.29e6 | 9.89e5 | 1.02e6 | inactive
CG13403 | DRSC19535 | 1.51e6 | 1.50e6 | 1.03e6 | 1.10e6 | inactive
Ist1 | DRSC09697 | 1.58e6 | 1.61e6 | 1.30e6 | 1.13e6 | inactive
CG4133 | DRSC00639 | 1.46e6 | 1.52e6 | 8.92e5 | 1.02e6 | inactive
CG17928 | DRSC02644 | 1.58e6 | 1.80e6 | 1.17e6 | 1.26e6 | inactive
Cep89 | DRSC07110 | 1.65e6 | 1.78e6 | 1.44e6 | 1.57e6 | inactive
fig | DRSC16270 | 1.79e6 | 1.80e6 | 1.08e6 | 1.24e6 | inactive
MP1 | DRSC12124 | 1.66e6 | 1.73e6 | 1.17e6 | 1.20e6 | inactive
temp | DRSC18271 | 4.84e5 | – | 8.55e5 | – | inactive
Uggt | DRSC11315 | 1.46e6 | 1.54e6 | 1.30e6 | 1.39e6 | inactive
CG12035 | DRSC08238 | 1.30e6 | 1.47e6 | 1.26e6 | 1.19e6 | inactive
CG1492 | DRSC19605 | 1.62e6 | 1.60e6 | 1.14e6 | 1.21e6 | inactive
